Percent effect of library compounds

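Whole-parasite assay of Trypanosoma brucei over 72 hours; the read-out is not stated. Compounds at 30 µM. Direction is inferred from retests: higher values go with stronger inhibition. Values scatter widely below zero; nearly all retest evidence comes from the higher of the two concentrations used. Of about 64,000 compounds tested this way, about 940 (1.5%) reached 50% or more in at least one test.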

Each number is a percent effect as filed.
The record does not define 0% and 100%; most values in the screen are far below 50% and negative numbers occur (in some assays of this library far below -100).
Compounds were drawn at random from those tested, without regard to their results.

Compound | percent effect
CC(C(=O)O)N1CC2(CCC1=O)CCN(C/C=C/c1ccccc1)CC2 (centres undefined) | -2.549%
Cc1ncccc1Oc1ncnc(N2CCCC(O)(CO)CC2)c1C (centres undefined) | -4.413%
CCN(CC)C(=O)c1c(Br)cnn1CC | -11.67%
CC(C)N1CCC(O)(CNC(=O)CC2OCCc3ccccc32)CC1 (centres undefined) | -18.77%
O=C(O)C(F)(F)F.[H][C@]12CCC[C@@]1(COc1cccnc1)CN(S(=O)(=O)N(C)C)C2 | -12.95%
CC[C@H](C)[C@@H](CO)NC(C)Cc1ccc(Cl)cc1 (some centres undefined) | -1.239%
COC(=O)c1ccc(N2CCN(C(=O)c3cc(C)no3)C(C)C2)cc1 (centres undefined) | 29.28%
Cc1ncsc1C(=O)NCCN1CCCCCC1=O | -15.57%
O=C(c1ccc(CN2CCCCC2)cc1)N1Cc2cnn(CCO)c2C1 | -0.2362%
O=C(O)CN1CCC2(CCc3ccccc32)CC1 | 4.71%
Cc1cc(C)n(CCCNC(=O)[C@@H](C)NC(=O)OC(C)(C)C)n1 | 15.18%
COCC1CN(C(=O)COc2ccccc2)Cc2ncn(C)c21.O=C(O)C(F)(F)F (centres undefined) | -45.03%
O=S(=O)(c1c(Cl)nc2sccn12)N1CCC2(CCNCC2)C1 | -8.405%
Cn1cc(CN2CCC3(CCCN(Cc4ccccn4)C3)CC2)cn1 | 13.53%
COCCN(Cc1cccc(O)c1)Cc1ccccc1F | -19.72%
COc1cc(C)cc(C(C(=O)O)N(C)Cc2cnn(C)c2)c1OC (centres undefined) | -27.55%
O=C(c1cn(CC(=O)N2CCCCC2)c2ccccc12)C1CC1 | -4.561%
Cc1nc(N2CCCC2)nc2c1CCN(C(=O)c1ccoc1C)CC2 | 9.65%
CCOc1ncccc1C(=O)NCC(O)c1ccc(F)c(F)c1 (centres undefined) | -25.21%
OCCN1CCCC(c2cccc(-c3ccccc3F)n2)C1 (centres undefined) | -20.99%
Cc1ccc(-n2ncc(C(=O)N3CCCC3c3cnn(C)c3)c2C)cc1 (centres undefined) | 2.081%
CN(C)C(=O)c1cn2cc(-c3cccc(Cl)c3)n(CC3CC3)c(=O)c2n1 | 23.9%
Cc1nc(C2CCCN2C(=O)CNS(C)(=O)=O)no1 (centres undefined) | 33.37%
Cc1nc[nH]c1C(=O)N1CCCC2(C1)C(=O)N(C)c1ccccc12 (centres undefined) | 8.497%
CC(C)(C)c1n[nH]cc1CN1CCc2nc3ccsc3c(=O)n2CC1 | -17.54%
Cc1cc(C(=O)NC2CCN(c3ncccc3C#N)CC2)on1 | -28.41%
CC(C)(C)c1ncc(C(=O)NCCn2ccnc2)s1 | -53.97%
Cn1cc(CN2CCC(Cn3cc(-c4ccccc4)nn3)CC2)cn1 | -10.59%
COc1ccc(-c2nc(CN3CCN(CCO)CC3)co2)cc1 | 7.221%
Cc1ncc(C)c(N2CCC(CCc3ccccc3)(C(=O)O)CC2)n1 | -9.065%
CCc1ncc2c(n1)CN(CC(=O)Nc1ccncc1)CC2 | -19.69%
Cc1cnc2n(c1=O)C(CC(=O)NCc1ccccc1Cl)CS2 (centres undefined) | -4.103%
CCn1cc(CN2CCCN(C(=O)C3(C)CCOCC3)CC2)cn1 | -35.59%
CCC1CN(c2ncnc3nc[nH]c23)CCO1 (centres undefined) | -10.31%
CCOCCn1nc(C2CCNCC2)n(Cc2ccccc2)c1=O | -32.34%
O=C(O)C(F)(F)F.O=C(O)C(F)(F)F.O=C(O)C(F)(F)F.[H][C@]12CCN(Cc3ccoc3)C[C@@]1([H])OCCN(Cc1cccnc1)C2 | -3.251%
COc1ccc(-c2nc(CN3CC(n4cccn4)C3)no2)cc1 | -9.118%
Cc1nnc(-c2cccc(C#N)c2)n1C1CCCN(C(C)C)C1=O (centres undefined) | -51.33%
COc1c(CNCc2ccc3c(c2)OCCO3)c(C(C)C)nn1C | 2.799%
Cc1ccc(N(C)CC(O)COCc2ccccc2)c(C)c1 (centres undefined) | -30.13%
COc1ccc(C(C)NCc2scnc2C)cc1Cn1cccn1 (centres undefined) | -7.491%
Cc1noc(C)c1CNCC1Cn2nncc2CO1.O=C(O)C(F)(F)F (centres undefined) | -105.3%
O=C(O)C(F)(F)F.[H][C@]12CCN(c3ccccn3)[C@@]1([H])CC[C@@H](COCc1csc(C)n1)O2 | -17.64%
COCCC(=O)NCC(O)c1c(F)cccc1F (centres undefined) | -12.42%
Cc1cccc(-c2noc(CNC(C)Cn3cc(C)cn3)n2)c1 (centres undefined) | 4.282%
COC(C)(C)C(=O)NCC1CCN(Cc2cc3ccccc3[nH]2)C1 (centres undefined) | -1.411%
Cc1cc(NC(=O)CN(CC(C)O)c2ccccc2)on1 (centres undefined) | -3.022%
COc1ccccc1CC(C)(C)C(=O)NCC(=O)Nc1cccnc1 | -10.93%
CC(C)CN(Cc1ccc(O)c(C(=O)O)c1)Cc1ccccn1 | -26.97%

Measurements from “University of Dundee, Small-Polar-MMV Screening Library” (2021), ChEMBL document CHEMBL3988442.